PubChem BioAssay AID1259308 | NCATS, 2017

Assay: 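Candidate targets for better recombinant protein yield in mammalian cells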 (primary screen)
Cells: human HEK293 embryonic kidney cells stably expressing firefly luciferase (HEK-CMV-Luc2-Hygro)
Reagent: single siRNA against human genes, 0.8 pmol siRNA per well
Time to read-out: 72 h
Read-out: 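Luciferase light (ONE-Glo) measured on one replicate plate set and viability (CellTiter-Glo) on the other, scaled to a negative control siRNA, with robust z-scores and luciferase per cell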
Direction: total luciferase, z-score: higher = more reporter protein produced
Active means: 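An siRNA counts as active if its total luciferase robust z-score exceeds 3; genes with two or more such siRNAs out of three were retested with fresh siRNAs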
Meaning of the calls: active = raised luciferase; inactive = no rise
The whole screen tested about 59,000 reagents; shown is a part drawn at random. About 1,510 of them (2.6%) count as active. 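Calls use total luciferase alone and ignore viability, so some active siRNAs may act by altering cell number.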 Not all columns of the deposit are shown. No sequences are given here.

total luciferase, z-score, by target gene and reagent
MRPL33: SID160722488 -0.601 inactive; SID160722489 -1.22 inactive; SID160735234 -1.68 inactive
ANP32A: SID160719655 0.291 inactive; SID160719656 -1.05 inactive; SID160719657 1.26 inactive
GSTA4: SID160731034 0.153 inactive; SID160774650 -1.07 inactive; SID160774651 -0.0537 inactive

Individual results from above:
Entry of ANP32A [SID160719657] under “total luciferase, z-score”: 1.26
GSTA4 [SID160774650], total luciferase, z-score → -1.07
MRPL33 [SID160735234], total luciferase, z-score → -1.68

The results go on.
total luciferase, z-score, by target gene and reagent
ENTR1: SID160729271 2.75 inactive; SID160729272 -1.01 inactive; SID160729273 0.0132 inactive
LYG2: SID160762215 -0.185 inactive; SID160762216 0.424 inactive; SID160762218 -0.0936 inactive
HNRNPF: SID160775128 0.0464 inactive; SID160775129 1.79 inactive; SID160775130 1.1 inactive
BCL6B: SID160762375 -0.87 inactive; SID160762376 -0.219 inactive; SID160762377 2.74 inactive
SFXN1: SID160754606 1.81 inactive; SID160754607 -0.879 inactive; SID160754609 0.558 inactive
